According to US20090176209A1:
Results are given in words; binding and its absence hold for the method and conditions named. For part of these data: A result given as binding can be weak or reduced; the word gives no strength. Sequences can lack the tags named with a protein. Values belong to the binder of their own block, whether it stands above or below them.

How the values were obtained:
[1] = target: protein L (Pierce), biotinylated (Peptostreptococcus magnus); assay: protein-DNA complex captured on biotinylated protein in streptavidin-coated PCR tubes; co-captured DNA detected by PCR and gel
[2] = target: protein L (Pierce), biotinylated (Peptostreptococcus magnus); assay: capture on coated PCR tubes without 3F10 mAb; PCR and gel
[3] = target: protein L (Pierce), biotinylated (Peptostreptococcus magnus); assay: emulsion expression with 3.4 nM 3F10 mAb; capture on coated PCR tubes; PCR and gel
[4] = target: protein L (Pierce), biotinylated (Peptostreptococcus magnus); assay: capture on coated PCR tubes in the presence of 3.4 nM 3F10 mAb; PCR and gel

binding [1]: no binding
B1: scArc expressed from pIE7aA, pIE7a2A, pIE7a3A or pIE7a4A (protein)
chain: MGSTGGAAAKEAAAKEAAAKEAAAKELAAKEAAAKEAAAKEAAAKELAAGSGGGSGGGHMKGMSKMPQFNLRWPREVLDLVRKVAEENGRSVNSEIYQRVMESFKKEGRIGAGGGSGGGSGGGSGGGHMKGMSKMPQFNLRWPREVLDLVRKVAEENGRSVNSEIYQRVMESFKKEGRIGAGGGSGGGSYPYDVPDYA

binding [1]: no binding
B2: HA-tagged scArc repressor expressed from pIE2aA / pIE2a^2A-derived genetic elements (protein)
chain: MGSTGGAAAGSGGGSGGGHMKGMSKMPQFNLRWPREVLDLVRKVAEENGRSVNSEIYQRVMESFKKEGRIGAGGGSGGGSGGGSGGGHMKGMSKMPQFNLRWPREVLDLVRKVAEENGRSVNSEIYQRVMESFKKEGRIGAGGGSGGGSYPYDVPDYA

binding [2]: binds
binding [3]: binds
binding [4]: binds
B3: Vκ(E5)-scArc-HA fusion protein (Vκ(E5) fused to the N-terminus of scArc; pIE2AVκ(E5) series constructs) (protein)
chain: MGSTDIQMTQSPSSLSASVGDRVTITCRASQSVSSYLNWYQQKPGKAPKLLIYLASRLQSGVPSRFSGSGSGTDFTLTISSLQPEDFATYYCQQNWWLPPTFGQGTKVEIKRAAAGSGGGSGGGHMKGMSKMPQFNLRWPREVLDLVRKVAEENGRSVNSEIYQRVMESFKKEGRIGAGGGSGGGSGGGSGGGHMKGMSKMPQFNLRWPREVLDLVRKVAEENGRSVNSEIYQRVMESFKKEGRIGAGGGSGGGSYPYDVPDYA

binding [1]: no binding
B4: HA-tagged scArc repressor expressed from pIE3A / pIE3aA-derived genetic elements (protein)
chain: MSGSGGGSGGGHMKGMSKMPQFNLRWPREVLDLVRKVAEENGRSVNSEIYQRVMESFKKEGRIGAGGGSGGGSGGGSGGGHMKGMSKMPQFNLRWPREVLDLVRKVAEENGRSVNSEIYQRVMESFKKEGRIGAGGGSGGGSMGSTGGAAARSYPYDVPDYA
